Measurements published in PubChem BioAssay AID588590 (National Center for Advancing Translational Sciences (NCATS), 2011).
Where “and” joins values, the source holds several entries; their conditions need not be identical. Equal entries are not always repeated. In all, about 390,000 compounds went through this assay and about 4,000 (1%) were called active. Inconclusive means that the source gave no clear call. Such entries were picked first, then a sample of the others. The call rests on the fitted dose curve; in most records, active means well fitted inhibition curve with a large enough effect; inconclusive means small, poorly fitted or top-dose-only effect, or another doubt; inactive means no such curve, though single readings can be large or run the other way. Potencies of inconclusive entries are doubtful fits and often do not repeat.

Protein sequences, listed by entry. Tags and fused reporters are not part of them. Lines headed by an entry give the natural chain unless they say otherwise; changes in a name come on top.
UniProt Q9UNA4: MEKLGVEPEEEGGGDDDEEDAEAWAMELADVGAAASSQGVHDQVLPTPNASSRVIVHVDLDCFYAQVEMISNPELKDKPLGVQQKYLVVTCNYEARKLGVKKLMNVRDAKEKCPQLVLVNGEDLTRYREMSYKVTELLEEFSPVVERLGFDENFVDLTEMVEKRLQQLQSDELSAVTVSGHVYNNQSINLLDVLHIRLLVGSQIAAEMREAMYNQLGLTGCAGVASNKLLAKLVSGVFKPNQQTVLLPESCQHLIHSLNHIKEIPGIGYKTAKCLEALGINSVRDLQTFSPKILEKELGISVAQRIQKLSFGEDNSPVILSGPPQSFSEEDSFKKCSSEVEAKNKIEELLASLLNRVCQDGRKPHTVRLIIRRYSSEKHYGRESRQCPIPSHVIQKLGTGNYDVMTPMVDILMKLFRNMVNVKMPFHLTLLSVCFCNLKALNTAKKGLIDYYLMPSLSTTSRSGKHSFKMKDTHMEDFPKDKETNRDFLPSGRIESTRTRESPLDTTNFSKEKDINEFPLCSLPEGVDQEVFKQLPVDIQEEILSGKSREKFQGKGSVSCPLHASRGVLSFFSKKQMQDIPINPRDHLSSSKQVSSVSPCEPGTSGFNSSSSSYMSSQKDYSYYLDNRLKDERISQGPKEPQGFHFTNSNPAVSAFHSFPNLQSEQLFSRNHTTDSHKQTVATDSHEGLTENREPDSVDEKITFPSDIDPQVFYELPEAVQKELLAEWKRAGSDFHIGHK

What follows are molecules tested against DNA polymerase iota (Homo sapiens) (UniProt Q9UNA4) (assay: qHTS for Inhibitors of Polymerase Iota). Details: Pol iota fluorescent replication assay, 10 min; series mostly up to 115 µM.
Procedure, shortened: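 Fluorescent replication assay read twice, at 0 min and 10 min after adding 50 nM (final) substrate. Enzyme (10 nM) and compounds were first incubated 15 min at room temperature; enzyme-free buffer wells were negative controls.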
Potency means the concentration at half of the fitted maximal effect.

Q: How did the Potency turn out when `COn1c2c(c3c4nonc4ccc31)CCCC2` was run?
A: active: 22.4 µM

Q: `CCC(CC)C1=NN2C(=N)/C(=C/c3ccc(OC(=O)c4ccco4)cc3)C(=O)N=C2S1` was tested. Which Potency did it give?
A: inconclusive: 25.1 µM [inhibitor, single point]

Q: Which Potency does the source give for `CSc1nc(C)c2c(n1)N(c1ccc(O)cc1)CC2` here?
A: inconclusive: 44.7 µM [inhibitor, partial curve, poor fit]

Q: For `CCOC(=O)/C=C/c1ccc2c(c1)S(=O)(=O)N(Cc1ccc(OC)cc1)[C@H]2CC(=O)OCC`, which Potency is on record?
A: inconclusive: 25.1 µM [inhibitor, full curve]

Q: How did the Potency turn out when `O=C(COc1ccc2ccc(=O)oc2c1)NC(Cc1ccc(Cl)cc1)C(=O)O` (stereo not drawn) was run?
A: inconclusive: 56.2 µM [inhibitor, partial curve, poor fit]

Q: How did the Potency turn out when `Cn1cccc1CC(=O)N/N=C/C=C/c1ccco1` was run?
A: active: 17.8 µM

Q: For `C=CCOc1ccc(Br)cc1/C=C1/SC(=Nc2ccc(C(=O)O)cc2)NC1=O`, which Potency is on record?
A: inconclusive: 14.1 µM [inhibitor, partial curve, poor fit]

Q: With `Cc1ccc(SCCNC(=S)Nc2cc(C)ccc2C)cc1` as the molecule, how does the Potency read?
A: inconclusive: 7.08 µM [inhibitor, single point]

Q: How did the Potency turn out when `CC1(c2nnc(-c3ccccc3)o2)CC(c2cccnc2)=NO1` (stereo not drawn) was run?
A: inconclusive: 39.8 µM [inhibitor, single point]

Q: How did the Potency turn out when `CC(NCC(=O)Nc1cc(S(=O)(=O)N2CCOCC2)ccc1N1CCOCC1)c1ccco1` (stereo not drawn) was run?
A: inconclusive: 17.8 µM [inhibitor, partial curve, poor fit]

Q: `CN(C)c1ccc(N=Cc2ccncc2)cc1` was tested. Which Potency did it give?
A: inconclusive: 15.8 µM [inhibitor, full curve, poor fit]

Q: For `CC(C)(C)c1[nH]nc2c1C(c1ccncc1)C(C#N)=C(N)O2` (stereo not drawn), which Potency is on record?
A: inactive

Q: For `O=C(CS(=O)(=O)c1ccccc1)c1cc2ccccc2oc1=O`, which Potency is on record?
A: inconclusive: 25.1 µM [inhibitor, partial curve, poor fit]

Q: For `O=C1c2nc3cc(-c4ccco4)[nH]n3c(=O)c2CN1C1CCCCC1`, which Potency is on record?
A: inconclusive: 12.6 µM [inhibitor, full curve, poor fit]

Q: With `Cc1sc2ncn(CC(=O)Nc3ccc(F)cc3F)c(=O)c2c1S(=O)(=O)N1CCC(C)CC1` as the molecule, how does the Potency read?
A: inconclusive: 6.31 µM [inhibitor, partial curve, poor fit]

Q: With `O=C(c1cc2c(s1)CCCC2)N1CCN(Cc2ccc3c(c2)OCO3)CC1` as the molecule, how does the Potency read?
A: inconclusive: 17.8 µM [inhibitor, partial curve, poor fit]

Q: Which Potency does the source give for `CCc1nnc(NC(=O)[C@@H](NC(=O)c2cccc(S(=O)(=O)N3CCOCC3)c2)C(C)C)s1` here?
A: inconclusive: 100 µM [inhibitor, partial curve, poor fit]

Q: For `O=C(C1CCN(S(=O)(=O)c2cnc[nH]2)CC1)N1CCN(Cc2ccc3c(c2)OCO3)CC1`, which Potency is on record?
A: inconclusive: 3.16 µM [inhibitor, single point]

Q: `O=C(CCc1nc2ccccc2s1)Nc1cccnc1` was tested. Which Potency did it give?
A: inconclusive: 56.2 µM [inhibitor, partial curve, poor fit]

Q: How did the Potency turn out when `Cc1cc(C)cc(N(CC(=O)NCCSCc2ccco2)S(C)(=O)=O)c1` was run?
A: inconclusive: 50.1 µM [inhibitor, partial curve, poor fit]

Q: Which Potency does the source give for `Cc1ccc2nc3c(c(N)c2c1)CCN3c1ccccc1` here?
A: inconclusive: 35.5 µM [inhibitor, single point]

Q: For `O=S(=O)(c1ccc2nc(COc3ccccc3)[nH]c2c1)N1CCOCC1`, which Potency is on record?
A: inconclusive: 31.6 µM [inhibitor, partial curve]

Q: For `CCc1ccc(N=C2NC(=O)/C(=C/c3ccc(OCC(=O)O)c(OC)c3)S2)cc1`, which Potency is on record?
A: inconclusive: 50.1 µM [inhibitor, partial curve, poor fit]

Q: For `Cc1c(-c2nnc(SCC(=O)Nc3ccccc3F)o2)nnn1-c1ccc(F)cc1`, which Potency is on record?
A: inconclusive: 79.4 µM [inhibitor, partial curve, poor fit]

Q: `CN(C)/C=N/c1c(C#N)cnn1-c1ncnc2sc(-c3ccccc3)cc12` was tested. Which Potency did it give?
A: inconclusive: 7.08 µM [inhibitor, partial curve, poor fit]

Q: How did the Potency turn out when `Cc1cc(C)n(-c2ccc(C(=O)O)cc2)n1` was run?
A: inactive

Q: For `CCn1c(SCC(=O)N/N=C/C=C/c2ccco2)nc2ccccc21`, which Potency is on record?
A: active: 20 µM

Q: `COc1ccc(C2NC(C(=O)O)Cc3c2[nH]c2ccccc32)cc1OC` (stereo not drawn) was tested. Which Potency did it give?
A: inconclusive: 1.78 µM [inhibitor, partial curve, poor fit]

Q: How did the Potency turn out when `CCCCCCCC(=O)OC(CN1CCCCC1)CN1CCCC1=O` (stereo not drawn) was run?
A: inactive

Q: `O=C(NCCCO)c1ccc2nc(-c3ccco3)c(-c3ccco3)nc2c1` was tested. Which Potency did it give?
A: active: 12.6 µM and active: 10 µM

Q: `Cc1ccc2nc(SCC(=O)NNC(=O)c3ccccc3)[nH]c2c1` was tested. Which Potency did it give?
A: inconclusive: 112 µM [inhibitor, single point]

Q: With `CC(=O)Nc1ccc(NC(=O)c2cc3sccc3n2Cc2ccc(F)cc2)cc1` as the molecule, how does the Potency read?
A: inconclusive: 100 µM [inhibitor, partial curve, poor fit]

Q: With `NC(N)=NS(=O)(=O)c1ccc(NC(=S)NC(=O)/C=C/c2ccco2)cc1` as the molecule, how does the Potency read?
A: inconclusive: 44.7 µM [inhibitor, partial curve]

Q: With `O=C(CN1C(=O)C2CC=CCC2C1=O)NCC1COc2ccccc2O1` (stereo not drawn) as the molecule, how does the Potency read?
A: inactive

Q: Which Potency does the source give for `Cc1cccc2sc(N(Cc3cccnc3)C(=O)c3cccs3)nc12` here?
A: inactive

Q: Which Potency does the source give for `C/C=C/C=C\C(=O)Nc1cccc(C2=NOC3(C2)C[C@@H](C(N)=O)N(C(=O)c2cc([N+](=O)[O-])cc([N+](=O)[O-])c2C)C3)c1` (stereo partly drawn) here?
A: inconclusive: 39.8 µM [inhibitor, single point]

Q: For `O=C1CCCCC/C1=N/Nc1ccc(OCc2ccccc2)cc1`, which Potency is on record?
A: inconclusive: 89.1 µM [inhibitor, single point]

Q: `COc1cc(-c2nnc3sc(Cc4ccccc4)nn23)cc(OC)c1OC` was tested. Which Potency did it give?
A: inconclusive: 31.6 µM [inhibitor, single point]

Q: `CCOc1ccccc1N1C(=O)c2ccc(C(=O)Nc3cccnc3)cc2C1=O` was tested. Which Potency did it give?
A: inconclusive: 39.8 µM [inhibitor, single point]

Q: With `Cc1ccnc(NS(=O)(=O)c2ccc(NC(=O)CCS(=O)(=O)c3ccccc3)cc2)n1` as the molecule, how does the Potency read?
A: inconclusive: 50.1 µM [inhibitor, single point]

Q: For `COc1cccc(C(=O)Nc2ccc3c(C)cc(=O)oc3c2)c1`, which Potency is on record?
A: inconclusive: 79.4 µM [inhibitor, single point]

Q: `O=C(O)CCn1c(=O)c2cccn2c2cccnc21` was tested. Which Potency did it give?
A: inactive

Q: With `C=CC(=O)N1CCCC(Nc2nc(Nc3ccc(N(C)C(=O)CC)cc3C)nc3nc[nH]c23)C1` (stereo not drawn) as the molecule, how does the Potency read?
A: inconclusive: 11.2 µM [inhibitor, partial curve]

Q: `Cc1ccc(C(=O)CSc2cc(C)[nH]c(=O)n2)cc1` was tested. Which Potency did it give?
A: inconclusive: 14.1 µM [inhibitor, partial curve, poor fit]

Q: With `O=C(Nc1ccc(C(=O)N2CCCCC2)cc1)c1ccccc1` as the molecule, how does the Potency read?
A: inactive

Q: Which Potency does the source give for `COC(=O)C1=C(C)NC(=O)C1(NC(=O)c1cc(OC)c(OC)c(OC)c1)C(F)(F)F` (stereo not drawn) here?
A: inactive

Q: Which Potency does the source give for `CCOC(=O)c1ccc(N2C(=O)c3n[nH]c(-c4ccco4)c3C2c2ccc(O)c(OCC)c2)cc1` (stereo not drawn) here?
A: inconclusive: 44.7 µM [inhibitor, partial curve]

Q: Which Potency does the source give for `COc1ccc(/C(O)=C2/C(=O)C(=O)N(CCN3CCOCC3)C2c2ccccn2)cc1OC` (stereo not drawn) here?
A: inconclusive: 17.8 µM [inhibitor, partial curve, poor fit]

Q: For `Cc1cccc(-n2c(Cc3ccccc3)nnc2SCc2nc(-c3cccs3)no2)c1`, which Potency is on record?
A: inconclusive: 79.4 µM [inhibitor, partial curve, poor fit]

Q: With `O=C(CN1C(=O)COc2ccc(S(=O)(=O)N3CCCC3)cc21)N1CCN(c2ccc(F)cc2)CC1` as the molecule, how does the Potency read?
A: inactive

Q: How did the Potency turn out when `CCOc1ccccc1NC(=O)/C=C/c1ccccc1[N+](=O)[O-]` was run?
A: inconclusive: 112 µM [inhibitor, single point]

Q: Which Potency does the source give for `Cc1nn(-c2ccccc2Cl)c(Cl)c1/C=N/Nc1cccc(C(=O)O)c1` here?
A: inactive

Q: Which Potency does the source give for `CCC(=O)Nc1cccc(C(=O)/C=C/c2ccccc2)c1` here?
A: inconclusive: 17.8 µM [inhibitor, partial curve, poor fit]

Q: With `CC(=O)/C(=C/c1ccccc1)C(=O)Nc1ccccc1C` as the molecule, how does the Potency read?
A: inconclusive: 15.8 µM [inhibitor, partial curve]

Q: With `O=C(NN1C(=O)/C(=C\c2cccnc2)SC1=S)C(c1ccccc1)c1ccccc1` as the molecule, how does the Potency read?
A: inconclusive: 25.1 µM [inhibitor, partial curve, poor fit]

Q: With `CCn1c(SCC(=O)Nc2cc(C)on2)nc2sc3c(c2c1=O)CCCC3` as the molecule, how does the Potency read?
A: inconclusive: 50.1 µM [inhibitor, partial curve, poor fit]

Q: Which Potency does the source give for `COc1ccccc1N(CC(=O)N1CCC(C(N)=O)CC1)S(=O)(=O)c1ccccc1` here?
A: inconclusive: 100 µM [inhibitor, single point]

Q: `Cc1ccc(-c2nc(C=Nc3ccc(O)cc3)c(O)o2)cc1` was tested. Which Potency did it give?
A: inconclusive: 22.4 µM [inhibitor, full curve, poor fit]

Q: For `CCOc1ccc(-c2nc(SCC(=O)c3ccccc3)n[nH]2)cc1`, which Potency is on record?
A: inactive

Q: With `CCOc1cc(CN2CCN(S(=O)(=O)c3ccc(C)cc3)CC2)ccc1OC` as the molecule, how does the Potency read?
A: inactive

Q: Which Potency does the source give for `CN(C)CCC(=O)c1cccc(Br)c1` here?
A: inconclusive: 22.4 µM [inhibitor, full curve, poor fit]

Q: Which Potency does the source give for `CC(C)c1cnc2c(c1SCC(=O)N1CCCCC1)c(=O)n(C)c(=O)n2C` here?
A: inconclusive: 89.1 µM [inhibitor, single point]

Q: Which Potency does the source give for `CSc1ccc(/C=N/NC(=O)c2ccc(-n3cnnn3)cc2)cc1` here?
A: inactive
